PubChem BioAssay AID1159578 – Peter MacCallum Cancer Centre, 2015

Screen: 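siRNA pools altering how lymphatic endothelial cells close a scratch wound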 (primary screen)
System: human lymphatic endothelial cells
Reagent: siRNA pool against human genes, 40 nM
Time to read-out: 48 h after transfection
Read-out: 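Cells stained with dye and imaged after a scratch; covered wound area and nuclei counted, duplicates averaged, migration set against mock wells and turned into a robust z-score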
Scale: migration robust z-score: higher = faster migration into the scratch; migration relative to mock: higher = more scratch area covered than mock; nuclei per well: higher = more cells in the well
Hit rule: 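Migration changed when robust z exceeds 2 or falls below -2 and mean nuclei number is at least 3300; otherwise not called changed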
Meaning of the calls: active = migration changed; inactive = no migration change, or too few cells
Here is a random part of about 18,000 reagents. About 1,030 of all reagents (5.7%) were called active. 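Inactive calls also include pools with fewer than 3300 nuclei, whose migration was not assessed.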 Raw values are not corrected between plates. No sequences are given here.

migration robust z-score | migration class with cell-count check | migration relative to mock | nuclei per well, duplicate mean | Call | Gene
0.46 | migration z between -2 and 2; enough cells | 1 | 6162 | inactive | CCM2
-0.16 | migration z between -2 and 2; enough cells | 0.77 | 3612 | inactive | HERC6
-0.54 | under 3300 nuclei; migration not judged | 0.7 | 2696 | inactive | CDK1
-0.66 | migration z between -2 and 2; enough cells | 0.71 | 4592 | inactive | ZNF320
-1.29 | migration z between -2 and 2; enough cells | 0.55 | 6326 | inactive | LCA5
-0.16 | migration z between -2 and 2; enough cells | 0.78 | 5834 | inactive | TH
-1.58 | migration z between -2 and 2; enough cells | 0.48 | 5404 | inactive | OR10A2
-1.85 | migration z between -2 and 2; enough cells | 0.45 | 3714 | inactive | CHST4
-0.54 | migration z between -2 and 2; enough cells | 0.7 | 6325 | inactive | UBE2G1
-0.68 | migration z between -2 and 2; enough cells | 0.71 | 5082 | inactive | RBM33
-0.78 | migration z between -2 and 2; enough cells | 0.66 | 5012 | inactive | KCNG2
1.17 | migration z between -2 and 2; enough cells | 1.19 | 5008 | inactive | TMEM91
0.13 | migration z between -2 and 2; enough cells | 0.83 | 5648 | inactive | ADAMTS13
0.5 | migration z between -2 and 2; enough cells | 1.02 | 5934 | inactive | CNTNAP5
-0.3 | migration z between -2 and 2; enough cells | 0.81 | 4548 | inactive | MATN2
0.6 | migration z between -2 and 2; enough cells | 0.92 | 6368 | inactive | SEC63
0.99 | migration z between -2 and 2; enough cells | 1 | 6628 | inactive | OXCT1
1.81 | migration z between -2 and 2; enough cells | 1.36 | 5690 | inactive | AP3M1
-0.9 | migration z between -2 and 2; enough cells | 0.63 | 4290 | inactive | RGS9
-5.08 | under 3300 nuclei; migration not judged | -0.4 | 2748 | inactive | SLC33A2
-1.81 | under 3300 nuclei; migration not judged | 0.41 | 2968 | inactive | CRYBG2
-0.49 | migration z between -2 and 2; enough cells | 0.76 | 5493 | inactive | LRRC27
1.75 | migration z between -2 and 2; enough cells | 1.34 | 8142 | inactive | GARIN5A
0.49 | migration z between -2 and 2; enough cells | 1.01 | 5508 | inactive | TMEM175
-0.33 | migration z between -2 and 2; enough cells | 0.8 | 6002 | inactive | MRPS26
0.78 | migration z between -2 and 2; enough cells | 0.96 | 5420 | inactive | RAD23A
-0.77 | migration z between -2 and 2; enough cells | 0.68 | 6119 | inactive | ERRFI1
-1.64 | migration z between -2 and 2; enough cells | 0.46 | 6577 | inactive | OR51I2
0.66 | migration z between -2 and 2; enough cells | 1.05 | 4927 | inactive | NECTIN1
0.68 | migration z between -2 and 2; enough cells | 1.06 | 6103 | inactive | TMEM200A
-0.36 | migration z between -2 and 2; enough cells | 0.8 | 6418 | inactive | MTFR1
-0.24 | migration z between -2 and 2; enough cells | 0.76 | 6493 | inactive | MKRN3
0.06 | migration z between -2 and 2; enough cells | 0.82 | 5748 | inactive | PPP2R2D
0.19 | migration z between -2 and 2; enough cells | 0.93 | 7572 | inactive | DAZAP1
-1.12 | migration z between -2 and 2; enough cells | 0.6 | 4889 | inactive | CERS6
-2.34 | migration z below -2; enough cells | 0.28 | 3744 | active | RB1CC1

Look-ups from the list.
Under “nuclei per well, duplicate mean”, CERS6 shows 4889
Under “nuclei per well, duplicate mean”, SLC33A2 is entered as 2748
Under “Call”, NECTIN1 has inactive
Under “nuclei per well, duplicate mean”, TH shows 5834
For “migration relative to mock”, PPP2R2D shows 0.82
Under “migration robust z-score”, TMEM91 has 1.17

Continued:
migration robust z-score | migration class with cell-count check | migration relative to mock | nuclei per well, duplicate mean | Call | Gene
-0.86 | migration z between -2 and 2; enough cells | 0.64 | 5732 | inactive | NUDT1
1.3 | migration z between -2 and 2; enough cells | 1.05 | 6135 | inactive | AMPD3
0.98 | migration z between -2 and 2; enough cells | 1.14 | 5608 | inactive | BAIAP2L2
0.65 | migration z between -2 and 2; enough cells | 1.06 | 5823 | inactive | NUP210L
-0.36 | migration z between -2 and 2; enough cells | 0.8 | 6356 | inactive | FGD1
0.3 | migration z between -2 and 2; enough cells | 0.97 | 6574 | inactive | TSHZ1
-1.48 | migration z between -2 and 2; enough cells | 0.5 | 5919 | inactive | SLC36A3
-0.34 | migration z between -2 and 2; enough cells | 0.8 | 6294 | inactive | KRTAP6-3
0.42 | migration z between -2 and 2; enough cells | 0.88 | 6534 | inactive | KIFAP3
0.39 | migration z between -2 and 2; enough cells | 0.88 | 6115 | inactive | SHPRH
-1.15 | migration z between -2 and 2; enough cells | 0.59 | 3864 | inactive | CD1B
1.66 | migration z between -2 and 2; enough cells | 1.31 | 7204 | inactive | TBC1D22B
-1.66 | migration z between -2 and 2; enough cells | 0.48 | 4778 | inactive | INPP5D
-1.38 | migration z between -2 and 2; enough cells | 0.52 | 4880 | inactive | NBPF10
0.33 | migration z between -2 and 2; enough cells | 0.97 | 5991 | inactive | ARHGAP17
-0.54 | migration z between -2 and 2; enough cells | 0.74 | 5436 | inactive | EXD3
-0.31 | migration z between -2 and 2; enough cells | 0.8 | 5832 | inactive | CALY
-0.96 | migration z between -2 and 2; enough cells | 0.63 | 5194 | inactive | KLHDC10
-0.29 | migration z between -2 and 2; enough cells | 0.8 | 5166 | inactive | KRT4
-1.54 | migration z between -2 and 2; enough cells | 0.48 | 4543 | inactive | ABHD15
0.15 | migration z between -2 and 2; enough cells | 0.92 | 5352 | inactive | HAUS6
